Laboratory results published in PubChem BioAssay AID1117319 (Southern Research Institute, 2015).
The whole screen tested about 260,000 compounds, of which about 1,500 (0.58%) were called active. Inconclusive results, whose numbers are uncertain, are shown with a selection of clear calls.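 How the source made its calls: active means inhibition above a set limit at one or more doses, reproduced on every date tested; inconclusive means results disagree between test dates, or hit never tested in dose response; inactive means the rest.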

The chains behind the UniProt entries cited, without tags or fusion partners. Where a name states a change or a piece, a line headed by the entry shows the natural chain unless it says otherwise.
UniProt P69720: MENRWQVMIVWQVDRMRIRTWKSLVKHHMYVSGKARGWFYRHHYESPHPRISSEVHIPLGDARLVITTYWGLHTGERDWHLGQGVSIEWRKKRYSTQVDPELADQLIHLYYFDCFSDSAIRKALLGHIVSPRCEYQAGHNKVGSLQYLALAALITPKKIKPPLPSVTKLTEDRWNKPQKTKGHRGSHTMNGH
UniProt P69721: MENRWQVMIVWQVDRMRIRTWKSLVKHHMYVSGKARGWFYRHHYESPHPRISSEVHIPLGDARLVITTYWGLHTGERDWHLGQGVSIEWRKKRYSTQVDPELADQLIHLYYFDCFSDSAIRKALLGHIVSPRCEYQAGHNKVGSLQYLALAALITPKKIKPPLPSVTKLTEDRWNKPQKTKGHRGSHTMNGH
UniProt P69722: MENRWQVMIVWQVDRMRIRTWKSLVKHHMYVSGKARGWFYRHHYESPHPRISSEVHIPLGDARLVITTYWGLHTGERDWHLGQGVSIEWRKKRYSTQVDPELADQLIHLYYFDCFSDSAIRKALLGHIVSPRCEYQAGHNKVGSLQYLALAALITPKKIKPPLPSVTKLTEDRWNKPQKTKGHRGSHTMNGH
UniProt P69723: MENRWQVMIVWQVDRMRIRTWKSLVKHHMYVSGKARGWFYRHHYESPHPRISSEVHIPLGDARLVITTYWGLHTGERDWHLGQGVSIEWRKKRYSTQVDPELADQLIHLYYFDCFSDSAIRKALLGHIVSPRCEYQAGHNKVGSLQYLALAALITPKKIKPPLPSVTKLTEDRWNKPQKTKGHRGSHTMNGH
UniProt Q9HC16: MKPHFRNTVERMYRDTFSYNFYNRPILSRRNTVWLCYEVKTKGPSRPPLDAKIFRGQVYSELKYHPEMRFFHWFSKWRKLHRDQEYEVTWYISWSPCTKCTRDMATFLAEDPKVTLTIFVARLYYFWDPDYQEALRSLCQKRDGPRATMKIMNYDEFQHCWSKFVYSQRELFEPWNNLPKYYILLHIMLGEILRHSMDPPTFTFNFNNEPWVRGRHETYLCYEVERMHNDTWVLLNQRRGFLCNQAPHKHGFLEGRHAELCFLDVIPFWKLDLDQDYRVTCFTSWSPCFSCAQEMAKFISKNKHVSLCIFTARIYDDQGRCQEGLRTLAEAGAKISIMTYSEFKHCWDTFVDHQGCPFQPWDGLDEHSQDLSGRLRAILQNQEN

Biological target: Virion infectivity factor (Human immunodeficiency virus type 1 group M subtype B (isolate BH10)) + Virion infectivity factor (Human immunodeficiency virus type 1 group M subtype B (isolate BRU/LAI)) + Virion infectivity factor (Human immunodeficiency virus type 1 group M subtype B (isolate PCV12)) + Virion infectivity factor (Human immunodeficiency virus type 1 group M subtype B (isolate HXB2)) + DNA dC->dU-editing enzyme APOBEC-3G (Homo sapiens) (UniProt P69720+P69721+P69722+P69723+Q9HC16)
Assay: inhibitors of Vif binding to APOBEC3G peptide, primary screen, biochemical, TR-FRET, GST-Vif 1-94, biotin-A3G peptide, dose response retest (AID 1117319);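 further: Vif residues 1-94 fused to GST binding biotinylated APOBEC3G peptide 110-148; 0% = full assay without inhibitor and 100% = GST in place of GST-Vif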
Settings: stronger effect = higher value

Compound	inhibition
Cc1ccc(-n2c(SCC(=O)NCc3ccco3)nc3nc4c(cc3c2=O)COC(C)(C)C4)cc1	inconclusive: 41.8%
Cc1cc(Nc2ccc(Br)cc2F)n2nc(C)nc2n1	inconclusive: 35.5%
NS(=O)(=O)c1cc2c(cc1Cl)NCNS2(=O)=O	inconclusive: 39.6%
COc1ccc(C2=Nn3c(nnc3-c3ccccn3)SC2)cc1OC	inconclusive: 23.5%
O=C(NCCCN1CCN(CCCNC(=O)c2ccc(F)cc2)CC1)c1ccc(F)cc1	inconclusive: 45.2%
O=C(N/N=C/c1c(Nc2cccc(C(F)(F)F)c2)nc2ccccn2c1=O)c1ccccc1	inconclusive: 46.8%
O=S1(=O)c2cccc3cccc(c23)N1Cc1nnc(-c2ccccc2Br)o1	inconclusive: 56.1%
c1ccc(-n2c(Sc3cnccn3)nnc2-c2cccs2)cc1	inconclusive: 35.9%
COc1ccc(-c2c[n+]3c(n2-c2ccccc2)CCCCC3)cc1	inconclusive: 50.3%
CCN1CCc2c(OCC(=O)N3CCCc4ccccc43)cccc2C1=O	inconclusive: 34.3%
CCCCC(=O)Nc1ccc2c(c1)nc1n2CCN(CCOC)C1	inconclusive: 53.5%
CCOC(=O)c1cc2cc(OC)ccc2nc1C	inactive: 4.64%
O=C(NCCN1CCN(c2ccccc2)CC1)c1cccn2c(=O)c3cc(Cl)ccc3nc12	inconclusive: 56.6%
O=C(NCc1ccccc1)C(c1ccccn1)N(C(=O)c1csnn1)c1ccccc1F (stereo unspecified)	inconclusive: 33.2%
Cc1cc(NC(=O)CSc2nnc(COc3ccccc3)o2)no1	inconclusive: 45%
CC(=O)OCCNc1cc(N2CCN(C)CC2)c2noc3c2c1C(=O)c1ccccc1-3	inactive: 3.2%
COc1ccc(N2C(=O)Cc3c2nc(N)c(C#N)c3N)cc1	inconclusive: 64.1%
O=C(c1oc2ccccc2c1N1CCCCC1)N1CCCCC1	inconclusive: 46.5%
COc1ccc(CCNC(=O)CC2Nc3cc(C)c(C)cc3NC2=O)cc1OC (stereo unspecified)	inconclusive: 42.7%
Cn1c(=O)[nH]c(=O)c2c1nc(N1CCOCC1)n2CC(O)COc1ccccc1 (stereo unspecified)	inconclusive: 38.3%
O=C(/C=C/c1ccccc1)NC1CCCc2ccccc21 (stereo unspecified)	inconclusive: 64.5%
Cc1oc(-c2ccccc2F)nc1CN1CCC(C(=O)NCc2cccs2)CC1	inconclusive: 62.6%
C/C(=C\C(=O)c1ccc(F)cc1)Nc1ccc(N2CCOCC2)cc1	inconclusive: 40%

By substructure, those above with fluorine
Compound	inhibition
Cc1cc(Nc2ccc(Br)cc2F)n2nc(C)nc2n1	inconclusive: 35.5%
O=C(NCCCN1CCN(CCCNC(=O)c2ccc(F)cc2)CC1)c1ccc(F)cc1	inconclusive: 45.2%
O=C(N/N=C/c1c(Nc2cccc(C(F)(F)F)c2)nc2ccccn2c1=O)c1ccccc1	inconclusive: 46.8%
O=C(NCc1ccccc1)C(c1ccccn1)N(C(=O)c1csnn1)c1ccccc1F (stereo unspecified)	inconclusive: 33.2%
Cc1oc(-c2ccccc2F)nc1CN1CCC(C(=O)NCc2cccs2)CC1	inconclusive: 62.6%
C/C(=C\C(=O)c1ccc(F)cc1)Nc1ccc(N2CCOCC2)cc1	inconclusive: 40%

Continued.

Compound	inhibition
COCCn1c(C)cc(C(=O)CSc2nc3ccccc3c(=O)[nH]2)c1C	inactive: 25.5%
CN(C)c1ccc(NC(=O)N2CCOCC2)cc1	inconclusive: 38.4%
O=Cc1cnc(N2CCCCC2)s1	inactive: -7.46%
N=c1sccn1CC(=O)Nc1ccccc1-c1ccccc1	inconclusive: 40%
c1ccc(COc2ccc(CNCc3cccs3)cc2)cc1	inconclusive: 33.1%
COc1ccc(C(C)=O)cc1CC(=O)Nc1ccc2c(c1)CCC2	inconclusive: 48.6%
Cn1nc(-c2ccccc2F)c2cc(C(=O)Nc3ccc4c(c3)OCCO4)sc21	inactive: -1.77%
OCCNCCCCOc1ccccc1F	inconclusive: 36.6%
Cc1cccn2c(=O)c3cc(C(=O)N4COCC4(C)C)sc3nc12	inconclusive: 50.7%
COC1=CC(=O)CC(C)C12Oc1c(Cl)c(OC)cc(OC)c1C2=O (stereo unspecified)	inconclusive: 43.8%
CN(C)C=Nc1c(Br)cc(Br)c2nonc12	inconclusive: 53.4%
Cc1ccc(S(=O)(=O)NCC(=O)OCC(=O)Nc2cccc(S(=O)(=O)NC3=NCCCCC3)c2)cc1C	inconclusive: 36.6%
COc1ccc(NC(=S)N/N=C2\CC(C)(C)Oc3ccc(O)cc32)cc1	inconclusive: 46.5%
Cc1ccc(C(=O)O/N=C\c2ccc(N3CCCCC3)c([N+](=O)[O-])c2)cc1	inconclusive: 35.5%
COc1ccc(Cl)cc1-c1n[nH]c(=S)n1C1CCCCC1	inconclusive: 33.6%
COc1ccc(C2(C)NC(=O)N(CC(=O)NCCC3=CCCCC3)C2=O)cc1OC (stereo unspecified)	inconclusive: 43.4%
C=C(C)C(=O)Nc1cccc(C2=NOC3(C2)C[C@H](C(N)=O)N(C(=O)CC#N)C3)c1 (stereo partly specified)	inconclusive: 59.2%
N#Cc1c(-c2ccccc2)nc(N2CCCCCC2)[nH]c1=O	inconclusive: 34.9%
Clc1ccc(Oc2nc(N3CCOCC3)nc(N3CCOCC3)n2)c(C2CCCCC2)c1	inactive: -3.78%
CC(C)(C)c1ccc(Cn2nnc3c(=O)[nH]c(C4CCN(C(=O)Cc5cccs5)CC4)nc32)cc1	inconclusive: 33.6%
COc1ccc(-n2c(C)cc(/C=C3\SC(=S)N(Cc4ccco4)C3=O)c2C)cc1	inconclusive: 39.7%
CC1=C([N+](=O)[O-])C(c2ccc(Cl)cc2)NC(=O)N1C (stereo unspecified)	inactive: 6.98%
COc1ccc(Cl)cc1C(=O)NNC(=O)CCNC(C)=O	inconclusive: 58%

Compound	inhibition
NS(=O)(=O)c1cccc(NC(=O)CSc2nc3ccccc3n2-c2ccccc2)c1	inconclusive: 40.8%
O=C(CN1CCN(Cc2ccccc2Cl)C1=O)NCCCN1CCOCC1	inconclusive: 37.5%
O=C(Nc1ccc(F)cc1)N1CCCN(c2nccc(C(F)(F)F)n2)CC1	inconclusive: 55.6%
COc1ccc(C2(O)CCN(C(=O)Cc3cccnc3)CC2)cc1	inconclusive: 40.7%
CC1CC(C)(C)NCc2ccccc21 (stereo unspecified)	inconclusive: 36.5%
Cn1c(=O)c2c(O)c(Cc3ccccc3)c(=O)[nH]c2n(C)c1=O	inconclusive: 43.8%
COc1ccc(OCC(O)CN(C)C(=O)/C=C/c2cccc([N+](=O)[O-])c2)cc1 (stereo unspecified)	inactive: -4.1%
CCS(=O)(=O)n1nc(-c2ccco2)nc1SC	inconclusive: 40.3%
Oc1ccc(NCc2ccccc2OCc2ccccc2F)cc1	inconclusive: 62.2%
O=C(O)c1ccc(N2CCCCC2)cc1	inactive: 8.04%
CC(C)CCOC(=O)C1C(c2ccccc2)C(C(=O)O)C1c1ccccc1 (stereo unspecified)	inconclusive: 42%
CC(C)(C)N1C(=O)Cc2c1nc(N)c1c(N)nc(N3CCCCC3CO)c(C#N)c21 (stereo unspecified)	inconclusive: 61.5%
NC(=O)C(=O)N/N=C/c1c[nH]c2ccc(Br)cc12	inconclusive: 48.1%
COc1cccc(C(=O)NCC(=O)N/N=C(C)\C=C\c2ccccc2)c1	inconclusive: 58%
Cc1cnc(-c2nnc(N(C)C(=O)C3CCCO3)s2)cn1 (stereo unspecified)	inconclusive: 30%
Cc1cccc(NS(=O)(=O)c2nnc(NC(=O)CC(C)C)s2)c1	inactive: -2.78%
CCCn1c(SCC(=O)NC(=O)NCc2ccco2)n[nH]c1=O	inconclusive: 33.3%
CN(Cc1ccc(OC(F)F)cc1)C(=O)c1ccc2nccnc2c1	inconclusive: 34.7%
CC1Cc2ccccc2N1C(=S)NC(=O)C1(C)CC1(Cl)Cl (stereo unspecified)	inconclusive: 47.3%
C/C(=N\NC(=O)c1cccc(N/N=C(\C)c2cc(O)ccc2O)c1)c1cc(O)ccc1O	inconclusive: 53.9%
O=c1[nH]c2cc3c(cc2cc1C(c1nnnn1CC1CCCO1)N1CCCCCC1)OCO3 (stereo unspecified)	inconclusive: 62.6%
COc1ccc(C(=O)NC(=S)SCC(=O)O)cc1	inconclusive: 40.6%
N#CC1=C(N)N(c2ccccc2)C2=C(C(=O)CCC2)C1c1ccccc1 (stereo unspecified)	inconclusive: 51.1%

Compounds shown so far that contain a CF3 group:
Compound	inhibition
O=C(N/N=C/c1c(Nc2cccc(C(F)(F)F)c2)nc2ccccn2c1=O)c1ccccc1	inconclusive: 46.8%
O=C(Nc1ccc(F)cc1)N1CCCN(c2nccc(C(F)(F)F)n2)CC1	inconclusive: 55.6%

Next entries.

Compound	inhibition
COc1ccc(NS(=O)(=O)c2cccs2)c(OC)c1	inconclusive: 44.8%
CCOC(=O)N1CCN(c2cc(C)nc3nc(C)nn23)CC1	inconclusive: 46.4%
CO/N=C(\C(=O)O)c1csc(NN=C(C)C)n1	inconclusive: 41.4%
Cc1ccc(NS(=O)(=O)c2cccc3nsnc23)cc1	inconclusive: 46%
Cc1ccc(C)c(N(CC(=O)NCCSCc2ccco2)S(C)(=O)=O)c1	inactive: 12%
CCSc1nnc(Cn2c(=O)sc3ccccc32)n1-c1ccccc1C	inconclusive: 47.9%
O=C(NCc1ccccn1)c1cccc([N+](=O)[O-])c1	inconclusive: 36%
O=C(c1ccc(S(=O)(=O)NCC2CCCO2)cc1)N1CCc2ccccc21 (stereo unspecified)	inconclusive: 34.9%
CCC1(C)CC2(CCCN(CCC(O)(c3ccccc3)c3ccccc3)C2)CCO1 (stereo unspecified)	inconclusive: 47.8%
Cc1ccc(OCC(=O)NNC(=O)c2ccoc2C)c(Br)c1	inconclusive: 34%
C=C(c1ccc(OC)cc1)c1ccc(OC)cc1	inactive: 13.2%
Cc1cc(C(=O)CN2C(=O)CCC2=O)c(C)n1Cc1ccccc1	inconclusive: 36.9%
CCNCc1cc(OCC)c(OCC(=O)NCCc2ccccc2)cc1Cl	inconclusive: 35.4%
COc1cc(NC(=O)C2CCCCN2)ccc1OCC(C)C (stereo unspecified)	inconclusive: 51.9%
COc1cc(OC)cc(-c2nc(-c3ccc(Br)cc3)no2)c1	inconclusive: 41.3%
CC1=CCC(C(=O)O)(C(=O)N/N=C/c2cccs2)C(c2ccc([N+](=O)[O-])cc2)C1 (stereo unspecified)	inconclusive: 55.8%
N#CC(C#N)=c1ccc2c(c1)N1C(c3ccccc3)=CC(c3ccccc3)C3CCCCC31N=2 (stereo unspecified)	inconclusive: 46.2%
Cc1ccc(C#CC[N+](C)(C)CC#Cc2ccccc2)cc1	inconclusive: 35.9%
O=C(NCc1ccncc1)C(=O)NCC(c1ccco1)N1CCN(c2ccccc2F)CC1 (stereo unspecified)	inconclusive: 42.8%
COc1cccc(CNC(=O)CCC2CCCN(C(=O)c3cscn3)C2)c1 (stereo unspecified)	inconclusive: 41.8%
CC(C)(C)c1ccc(COc2ccsc2C(=O)O)cc1	inconclusive: 57.1%
Cn1ncc(Cl)c1C(=O)Nc1cc(C(F)(F)F)ccc1F	inconclusive: 33.5%
